# Assay results reported in publication PMC11151024 (2024).
# Plain letter strings leave the end groups untold. For part of these data: Strings that start with PEPTIDE1 are HELM notation: dots part the residues, brackets hold end groups and non-standard residues.
# Assay: peptide made by a vendor (Fmoc solid-phase peptide synthesis; Rink amide resin (0.352 mmol/g))
# Conditions: whole synthesis, 220 nm, scale of the general procedure 0.2 mmol
row,Substance,final HPLC purity [%]
1,"PEPTIDE1{R.G.D.[dF].C}$PEPTIDE1,PEPTIDE1,5:R2-1:R1$$$V2.0",98.26
2,HRLLRCGNYA,97.51
3,SFGVCIRTPPAYRPPNAC,90.47
4,H-SFGCWIRTPPAYRPPNAC-OH,90.51
5,IVRWSKKVCQVS,98.20
6,H-SFGVWCRTPPAYRPPNC-OH,90.29

# Assay: general procedure: Fmoc solid-phase peptide synthesis; Rink amide resin (0.352 mmol/g)
# Conditions: late stage modification step
row,Substance,step yield [%]
1,H-Tyr-Pro-Phe-Phe-NH2,53.1

# Same assay, conditions: late stage modification step, 220 nm
row,Substance,final HPLC purity [%]
1,H-Tyr-Pro-Phe-Phe-NH2,96.74

# Same assay, conditions: whole synthesis, 220 nm, scale of the general procedure 0.2 mmol
row,Substance,final HPLC purity [%]
1,H-RWGC-NH2,100.0
2,RLCYSHKWD,100
3,RLTWCFSDY,100.00
4,TCDDPRFQDSS,93.06
5,RLTGCGSDY,94.34
6,PLCPEEKQRHLDKKQRFHNI,100
7,H-DPQERPRKLPQLCTE-OH,97.15
